Library screening results

Chains of the proteins cited; added tags and fusions are not shown.
UniProt E9BF75, entry or part of it: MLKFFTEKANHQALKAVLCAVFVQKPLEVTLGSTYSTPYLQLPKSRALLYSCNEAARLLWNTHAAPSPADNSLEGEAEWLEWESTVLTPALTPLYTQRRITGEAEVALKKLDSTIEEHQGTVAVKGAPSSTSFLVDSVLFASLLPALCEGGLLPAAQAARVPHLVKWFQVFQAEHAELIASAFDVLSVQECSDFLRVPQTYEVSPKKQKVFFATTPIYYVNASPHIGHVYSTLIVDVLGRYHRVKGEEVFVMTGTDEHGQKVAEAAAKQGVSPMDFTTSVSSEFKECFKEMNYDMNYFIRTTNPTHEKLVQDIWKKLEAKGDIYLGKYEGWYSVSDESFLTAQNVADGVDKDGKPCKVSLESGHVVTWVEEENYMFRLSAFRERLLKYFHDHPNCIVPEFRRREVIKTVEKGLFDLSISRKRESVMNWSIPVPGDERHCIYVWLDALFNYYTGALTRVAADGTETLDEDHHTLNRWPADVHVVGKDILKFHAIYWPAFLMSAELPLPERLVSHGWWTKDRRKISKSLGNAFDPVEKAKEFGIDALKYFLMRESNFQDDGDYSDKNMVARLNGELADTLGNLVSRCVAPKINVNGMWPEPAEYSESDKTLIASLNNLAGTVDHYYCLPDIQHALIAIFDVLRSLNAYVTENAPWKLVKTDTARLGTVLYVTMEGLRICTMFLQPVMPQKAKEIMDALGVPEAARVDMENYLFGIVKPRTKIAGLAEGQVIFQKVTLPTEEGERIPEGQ

Data taken from ChEMBL document CHEMBL3988442, “University of Dundee, Small-Polar-MMV Screening Library” (2021).

Results are percentages, as filed.
How 0% and 100% were set is not recorded. Most values in the screen are low, and negative values occur.
Compounds were drawn at random from those tested, without regard to their results.

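Methionyl-tRNA synthetase (putative), Leishmania donovani (UniProt E9BF75). Primary screen of methionyl-tRNA synthetase; the read-out is not stated. The test concentration is not given. The values are filed as inhibition. Size under these conditions: about 68,000 compounds, about 24 of them at 50% or above in at least one test.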

For CN(C)C(C(=O)N1CCN(C(=O)c2ccc[nH]2)CC1)c1ccc(F)cc1 (stereo unspecified) the result was 1.882%. For COc1ccc(Cl)cc1CC(=O)N1CCN(CCO)CC1 the result was 1.045%. Fc1cnc(N2CC[C@@H]3O[C@H](COCc4ccccn4)CC[C@@H]32)nc1 read 21.17%. Result for CNS(=O)(=O)CCn1cc(-c2ccc(NC(C)=O)cc2)nn1 was -0.9804%. C[C@@H](N)C(=O)N1CC2(CCNCC2)c2cc(Cl)ccc21 read 11.86%.

Result for CS(=O)(=O)N1CCC(NC(=O)COc2ccc(Cl)c(Cl)c2)CC1 was 5.923%. For Cc1ccc(S(=O)(=O)N2C[C@H]3C[C@H](NC(=O)c4cc[nH]n4)[C@H]3C2)cc1 the result was 0%. O=C(Nc1ccnc2ccnn12)c1ccc(NC2CC2)nc1 read 18.79%. Cc1nn(C2CCCCC2)c2nc(C(C)(C)CN3CCOCC3)[nH]c12 gave 10.16%. With CN1CCN(CC2CN(CC3CC3)Cc3nccn3C2)CC1 (stereo unspecified) the screen gave 9.333%.

CN(Cc1ccco1)c1ccc(-c2nccn2C)nn1 read -0.6969%. For Fc1ccccc1OC1CCN(CCn2cc3ccccc3n2)CC1 the result was 18.58%. O=C1CCCCN1CCc1nc(-c2cccnn2)no1 gave 15.89%. With CN(C)C(=O)Cc1ccccc1NCc1noc(-c2ccccc2)n1 the screen gave 12.98%. Cc1cnc(N2CCN(C(C)C(N)=O)CC2)nc1 (stereo unspecified) read 9.777%.

Result for Cc1noc(C)c1CNCC1CNc2ccnn2C1 (stereo unspecified) was 10.3%. For C[C@@H]1CN(C(=O)C2(N3CCCCC3)Cc3ccccc3C2)C[C@H](C)O1 the result was 4.301%. With COCC1CCCN(C(=O)c2ccccc2NCc2cccnc2)C1 (stereo unspecified) the screen gave 4.673%. Result for CCCn1ncc2c(C(=O)Nc3cnn(CC)c3C)cc(C3CC3)nc21 was 13.64%. For COCC[C@]1(O)CCN(c2ncc(Cl)cc2F)C[C@H]1C the result was 7.829%.

CC(C(=O)Nc1ccnn1C(C)C)N1CCc2nn(C)c(=O)cc2C1 (stereo unspecified) read 7.735%. For CNCC(=O)Nc1ccc(-c2cnc(NCCS(C)(=O)=O)nc2)cc1 the result was 14.32%. CN(C)c1ccc(C2CCN(c3cnccn3)CC2)nc1 gave 22.33%. Result for Cn1cc(C2CC(=O)NC23CCN(C(=O)NC2CC2)CC3)cn1 (stereo unspecified) was 7.397%. CN1C[C@@H](NC(=O)c2ccccc2)C[C@H]1c1nc(-c2cnccn2)no1 read 9.023%.

CNC(=O)C1Cn2ccnc2C2(CCN(Cc3csc(C)n3)CC2)O1 (stereo unspecified) gave 9.589%. Cc1cc(NC(=O)NCC2CCOC2)no1 (stereo unspecified) read 11.19%. Cc1nc2cc(NC(=O)Cn3ncc(N4CCCC4)cc3=O)ccc2s1 gave 15.62%. For CN(C)C(=O)CCS(=O)(=O)Cc1coc(-c2ccc(F)cc2)n1 the result was 7.614%. Result for CCN1CCC(NC(=O)CN2CCCCC2Cn2cc(C)cn2)CC1 (stereo unspecified) was -4.861%.

O=C(Nc1ccc(-c2csnn2)cc1)N1CCCC1 read 17.01%. COc1cc(Cl)cc(C(=O)N2CCC3(CC2)CNC(=O)C3)c1 gave 15.25%. For CC(=O)N1CCC2(CCCN(C(=O)c3ccccc3)C2)C1 (stereo unspecified) the result was 2.439%. For CN1N=C(C(=O)NCc2ccc3c(c2)CCCN3C)CCC1=O the result was 20.83%. For Cn1ccnc1CN1CCC2(CC1)CN(Cc1ccccc1)C(=O)CO2 the result was 12.77%.

Cc1ccnc(NC(=O)c2cnc(C3CCCNC3)cn2)c1 (stereo unspecified) read 15.22%. Result for O=C(OCCNc1ncccn1)c1ccc(Br)s1 was 16.31%. For COc1cc(OC)cc(N2CCC(NC(=O)c3cccn3C)CC2)c1 the result was 1.748%. For COc1ccc(CNC(=O)NC(C)(C(=O)O)c2ccco2)cc1F (stereo unspecified) the result was -2.857%. CC(C)c1n[nH]c(C2CN(C(=O)COCC(F)(F)F)CCO2)n1 (stereo unspecified) read 12.14%.

With O=C1[C@H]2CC[C@H](CN(C3CSCCSC3)C2)N1Cc1cscn1 the screen gave 13.5%. For CCOc1ccccc1NC(=O)NCCc1ccoc1 the result was 15.6%. For NC(=O)C1CCN(Cn2nc(-c3ccc(F)cc3)oc2=O)C1 (stereo unspecified) the result was 22.98%. CN1CC(=O)N(c2cccnc2)Cc2c(NC3CC3)ncnc21 gave 8.571%. Result for Cc1ccc(CN2CCC3(CC2)CN(C(=O)c2cnccn2)CCO3)o1 was 12.33%.

Result for Cc1cnc(NC2CCc3c(ccc(=O)n3C)C2)nc1 (stereo unspecified) was 15.73%. O=C(CC1CC1)NCc1cc(=O)n2c(n1)CN(Cc1ccoc1)CCC2 gave 10.5%. Cc1cnn(CCNCc2ccccc2Oc2cccnc2)c1 read 3.472%. For Cc1nc(C2CCCN2C(=O)CCCn2cccn2)no1 (stereo unspecified) the result was 12.5%. With CN(Cc1nnc2n1CCC2)C(=O)Cc1ccc2c(c1)OCCO2 the screen gave 8.497%.

Result for CC(CN1CCOC1=O)NC(=O)c1cccc2cc[nH]c12 (stereo unspecified) was 11.38%. Result for CC(C)c1noc(CCC(=O)NCC2CC2)n1 was 13.86%. With CCNC(=O)c1nc2c(s1)CCCN2S(C)(=O)=O the screen gave 7.113%. Result for O=C1CC(c2ncc(-c3ccc4c(c3)OCCO4)[nH]2)CN1C1CCCC1 (stereo unspecified) was 7.379%.

Repeated from the top, 7 entries:

- CN(C)C(C(=O)N1CCN(C(=O)c2ccc[nH]2)CC1)c1ccc(F)cc1 (stereo unspecified) | 1.882%
- COc1ccc(Cl)cc1CC(=O)N1CCN(CCO)CC1 | 1.045%
- Fc1cnc(N2CC[C@@H]3O[C@H](COCc4ccccn4)CC[C@@H]32)nc1 | 21.17%
- CNS(=O)(=O)CCn1cc(-c2ccc(NC(C)=O)cc2)nn1 | -0.9804%
- C[C@@H](N)C(=O)N1CC2(CCNCC2)c2cc(Cl)ccc21 | 11.86%
- CS(=O)(=O)N1CCC(NC(=O)COc2ccc(Cl)c(Cl)c2)CC1 | 5.923%
- Cc1ccc(S(=O)(=O)N2C[C@H]3C[C@H](NC(=O)c4cc[nH]n4)[C@H]3C2)cc1 | 0%